Reference: PubChem BioAssay AID1794845 (National Center for Advancing Translational Sciences (NCATS), 2023)
In all, about 6,900 compounds went through this assay and fewer than 10 were called active. Calls follow the shape of the dose curve; as a rule, active = well fitted curve in the direction sought with a large enough effect; inconclusive = small, poorly fitted or top-dose-only effect, or another doubt; inactive = no such curve, though single readings can be large or run the other way. The list shows a part of the results.

By UniProt entry, the sequences of proteins in these tests, tags left out. Where a name states a change or a piece, a line headed by the entry shows the natural chain unless it says otherwise.
UniProt C7C422: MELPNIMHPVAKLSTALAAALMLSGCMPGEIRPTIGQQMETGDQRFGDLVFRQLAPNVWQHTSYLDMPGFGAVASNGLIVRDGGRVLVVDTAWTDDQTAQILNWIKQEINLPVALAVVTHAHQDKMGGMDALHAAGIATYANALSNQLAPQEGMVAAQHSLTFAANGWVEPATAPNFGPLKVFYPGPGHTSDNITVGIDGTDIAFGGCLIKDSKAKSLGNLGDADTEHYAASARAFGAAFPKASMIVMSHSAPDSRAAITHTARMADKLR

target: Metallo-beta-lactamase type 2 (Klebsiella pneumoniae) (UniProt C7C422); experiment: qHTS to identify inhibitors of the New Delhi Metallo-beta-lactamase (NDM): primary screen against the NCATS Gemini Collection; conditions: NDM-1 enzyme, meropenem hydrolysis, absorbance 300 nm; at 38.4 µM (top of the series) unless noted; also: % of control where 0% means no effect
Procedure, shortened: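 Meropenem hydrolysis (50 uM final) by 2 nM NDM-1 read as 300 nm absorbance after 30 min, following >30 min compound–enzyme preincubation in HEPES pH 7.0 with 1 uM ZnSO4 and 0.01% Tween20.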

Compound | activity % (negative = inhibition)
Cn1ccnc1-c1cn(Cc2ccccc2Cn2cccn2)nn1 | inactive: 0.586%
COc1ncccc1Nc1cnc2ccc(N3CCOCC3)nn12 | inactive: 11.8% [at 57.5 µM]
OC[C@@H]1CN(Cc2ccco2)C[C@H]1c1ccccn1 | inactive: 3.82%
O=C(NC1CCCC1)C1c2ccccc2CC(=O)N1Cc1ccccc1 (stereo unspecified) | inactive: 3.08%
COc1ccccc1CNC(=O)C1CN(C(C)C)C(=O)N1 (stereo unspecified) | inactive: -5.03% [at 57.5 µM]
COc1ccc(C2(C(=O)N3CCCCCC3c3nc(-c4cccnc4)no3)CC2)cc1 (stereo unspecified) | inactive: -1.26%
COc1ccccc1-c1cccc(C(=O)N2CCN(C(=O)c3ccc(F)cc3)CC2)c1 | inactive: 0.844%
CC(C)NC(=O)C1CCc2nnc(C(C)(C)C)n21 (stereo unspecified) | inactive: -0.813% [at 57.5 µM]
Cc1nc(C(=O)N2CC(F)(F)C[C@H]2c2nnc(C3CC3)o2)co1 | inactive: 52.8%
CN1CC2(CCN(Cc3ccc(C#N)cc3)CC2)CC(c2ccccc2)C1=O (stereo unspecified) | inactive: 21.5%
CCn1nc(-c2cccc(-c3ccnn3C)c2)nc1N(C)C | inactive: -0.0094%
Cc1nc(C)c(C(=O)N2CCCCCCNC(=O)CC2)s1 | inactive: 15.3%
CC(C)S(=O)(=O)c1ncc(CN(C)Cc2cnn(C)c2)n1CCc1ccccc1 | inactive: -4.1%
O=C(CC1CCCC1)N1CCC(c2noc(-c3cnccn3)n2)C1 (stereo unspecified) | inactive: -2.76%
CN(Cc1ccc(N2CCNC2=O)cc1)CC1CCCN(CCc2ccc(F)cc2)C1 (stereo unspecified) | inactive: 3.74%
CNC(=O)c1cc(C2CC2)nc2c1c(C1CCN(C(=O)C3CCCC3)C1)nn2C (stereo unspecified) | inactive: 20.8%
O=C(CCc1nnn2c1CN(C(=O)NCCc1ccccc1)CC2)NC1CC1 | inactive: 8.39%
CN1c2cc(C(N)=O)ccc2C(=O)N2CCCC21 (stereo unspecified) | inactive: -0.849%
C[C@@H]1CN(C(=O)c2cnc3sccn3c2=O)C[C@@]1(O)C1CCC1 | inactive: -0.99%
CN1CCCCCCN(C(=O)Cn2c(=O)oc3ccccc32)[C@H]2CCC[C@H]2C1=O | inactive: 6.66%
CCC[C@H]1CN(Cc2c(C)noc2C)C[C@@H]1NC(=O)C1CCOCC1 | inactive: -1.77%
COC(=O)CNC(=O)c1nc(-c2ccccc2OC)c2cnccn12 | inactive: 24.9%

Compound | activity % (negative = inhibition)
Cc1ccc(CN2CCC3(CC2)CC(c2ccccc2)C(=O)N3C)cc1F (stereo unspecified) | inactive: 11.9%
N#Cc1ccc(CN2CCCC3(CC(c4cccnc4)=NO3)C2)cc1 (stereo unspecified) | inactive: 10.9%
Cc1nn(C)cc1CN1CCC(O)(c2ccccc2)[C@H](N2CCCC2)C1 (stereo partly specified) | inactive: 0.544%
CCN1C(=O)Cc2cc(C(=O)NCCC(C)C)ccc21 | inactive: 27.3%
CC(C)CCNC(=O)N1CC[C@@H]2COC(=O)N(Cc3ccccc3)[C@@H]2C1 | inactive: 6.1%
CNC(=O)c1cc(C2CC2)nc2onc(C3CCCN3C(C)=O)c12 (stereo unspecified) | inactive: 24.9% [at 57.5 µM]
Cc1nc(N2CCC(NC(=O)COc3ccccc3)CC2)cc(C(F)(F)F)n1 | inactive: 13.9%
Cc1oc2c(c1C(=O)N1CCOCC1)CN(C(=O)c1ccncc1)CC2 | inactive: 54.7%
COc1cccc(C(=O)N2CCC(Oc3ccccc3-c3nc(C4CCOCC4)no3)C2)c1 (stereo unspecified) | inactive: 2.84%
NCC(=O)N[C@H]1CN(c2nccc(C(F)(F)F)n2)C[C@@H]1C1CC1 | inactive: -0.191%
CCCc1nc(CN(CC)C(=O)c2ccc(NC(=O)C3CCC3)cc2)no1 | inactive: 11.1%
Cc1cnn(C(C)c2nc(-c3ccc(C)nn3)no2)c1 (stereo unspecified) | inactive: -1.03%
COc1ccc2c(c1)C(C(=O)Nc1ccc(C)c([S+](=O)([O-])N3CCOCC3)c1)=CC(C)(C)CO2 | inactive: 1.94%
CC1=C[C@@H](CN(CC2CC2)CC2CC2)[C@H](C(C)C)C[C@H]1Cc1nc2ccncc2[nH]1 | inactive: 22.3% [at 57.5 µM]
CC(=O)N1CCN(CC[C@H]2CN(C(=O)c3ccc(N(C)C)cc3)CC[C@H]2CC(=O)O)CC1 | inactive: 16.2%
COc1ccc(C(=O)N2CCC(c3noc(-c4ccncc4)n3)C2)cn1 (stereo unspecified) | inactive: 6.51%
CC(=O)N1CCC(C(=O)N[C@H]2CCN3C(=O)N(c4ccc(OC(F)(F)F)cc4)C(=O)[C@@H]3C2)CC1 | inactive: -9.06%
CC(=O)N1CCCC(c2nn(-c3cccc(Cl)c3)c(=O)[nH]2)C1 (stereo unspecified) | inactive: 14.7% [at 57.5 µM]
CC(C)OCCCNC(=O)C1CCCN(S(=O)(=O)c2cn(C)cn2)CCC(=O)NCC1 (stereo unspecified) | inactive: -8.72%
Cc1n[nH]c(C)c1CNC(=O)C12CCCC=C1N(Cc1ccccc1)C(=O)CC2 (stereo unspecified) | inactive: 5.12%
O=C(NCc1ccccc1)C1CCCN1c1nccc(Nc2ccccc2F)n1 (stereo unspecified) | inactive: 35%
CC(C)c1noc([C@@H]2C[C@@H](O)CN2Cc2cc3ccccc3o2)n1 | inactive: 12.8% [at 57.5 µM]

Grouped by structure, the entries above containing an NH in an aromatic ring (3)
Compound | activity % (negative = inhibition)
CC1=C[C@@H](CN(CC2CC2)CC2CC2)[C@H](C(C)C)C[C@H]1Cc1nc2ccncc2[nH]1 | inactive: 22.3% [at 57.5 µM]
CC(=O)N1CCCC(c2nn(-c3cccc(Cl)c3)c(=O)[nH]2)C1 (stereo unspecified) | inactive: 14.7% [at 57.5 µM]
Cc1n[nH]c(C)c1CNC(=O)C12CCCC=C1N(Cc1ccccc1)C(=O)CC2 (stereo unspecified) | inactive: 5.12%

Next results follow:

Compound | activity % (negative = inhibition)
O=C(NCCn1ccnc1-c1cc2n(n1)CCCNC2)c1ccncc1 | inactive: 23.6%
COCCn1c(C)cnc1CC1CCN(C(=O)c2c[nH]c3ccccc23)CC1 | inactive: 39%
CCOc1cc(=O)n2c(c1C(=O)Nc1cccc(C)c1)CCCC2 | inactive: 41.2%
CNC(=O)[C@@H](Cc1ccccc1)N1CCC[C@H]1C(=O)NCC1CC1 | inactive: 11.1% [at 57.5 µM]
C=CCNC(=O)N[C@H]1C[C@@H](C(=O)N[C@@H](CCS(C)(=O)=O)C(N)=O)N(C(=O)CSC)C1 | inactive: -0.301%
COCCN1C[C@@H]2[C@H](c3ccccc31)[C@@H](CO)[C@@H](c1ccccc1)N2C(=O)COC(C)=O | inactive: 4.01%
CN1CC2(CCN(C(=O)CCc3nc(-c4ccco4)no3)C2)OC1=O (stereo unspecified) | inactive: 7.83%
CCCS(=O)(=O)N1CCc2nnc(C3CC3)n2CC1 | inactive: 7.88%
COCCN1CC2CN(C(=O)CCCc3ccccc3)CC(C1)O2 | inactive: -0.476%
O=C1Cc2c(-c3ccccc3OCc3ccccc3)n[nH]c2CN1CC1CCOCC1 | inactive: -7.73% [at 57.5 µM]
Cc1nn(C)c(C)c1S(=O)(=O)N1CCC2(CCC(=O)N(Cc3ccccc3)CC2)CC1 | inactive: -1.31%
O=C(Nc1cccc(F)c1)[C@@H]1C[C@@H](c2cccc(C(F)(F)F)c2)N(CC2CCOCC2)C1 | inactive: -1.03%
CC(=O)N1CCn2c(nnc2C2CCCN2Cc2ccc(F)cc2F)C1 (stereo unspecified) | inactive: -1.98%
CCn1ncnc1C(C)NC1CCC2(CCNCC2)CC1 (stereo unspecified) | inactive: 9.84%
Cc1cn2nc(C(=O)NC3CCCCCC3)cc2c(N2CCSCC2)n1 | inactive: 1.22%
COCc1cc(CNC(=O)CC(c2ccccc2)c2ccccc2Cl)[nH]n1 (stereo unspecified) | inactive: -5.39%
O=C1NCCCCCN(C(=O)C2CCCCC2)[C@H]2CCCC[C@@H]12 | inactive: -1.31%
O=C1NCCOCCN(C(=O)Cc2cccc(F)c2)[C@H]2CCC[C@@H]12 | inactive: -0.244%
Cc1cnc(-c2ccccc2)n1C1CCCN(S(=O)(=O)c2ccccc2)C1 (stereo unspecified) | inactive: 4.9%
Cc1cnccc1CN(C)Cc1cc2n(n1)CCNC2 | inactive: 2.08%
CCC1(C(=O)NC2CCCCC2)CCCCC(=O)N1 (stereo unspecified) | inactive: 0.446%
O=C(c1cccc(OC2CN(C3CCCC3)C2)c1)N1CCCC1 | inactive: 4.99%

Compound | activity % (negative = inhibition)
C/C=C/CN1C[C@@H](NC(=O)c2cccc(N(C)C)c2)C[C@H]1C(=O)NCC | inactive: -0.496%
COC1=C(C(=O)OCc2ccccc2)N(c2c(C)cccc2C)[S+](=O)([O-])c2ccccc21 | inactive: 5.27%
CN1CCCC2(CCN(S(=O)(=O)c3ccc4[nH]c(=O)[nH]c4c3)C2)C1=O (stereo unspecified) | inactive: 1.81%
O=C([C@@H]1C[C@H](Oc2ccccc2)CN1C(=O)C1CC1)N1CCCC1 | inactive: 1.16%
CCCNC(=O)N1CCC(Cc2ccc(CCNC(C)=O)cc2)CC1 | inactive: 1.09%
CC(C)CCN1CC2(CCCN(S(=O)(=O)N3CCOCC3)C2)CCC1=O (stereo unspecified) | inactive: 1.08%
CC(=O)N[C@H](CC(C)C)c1nc(-c2ccc(C)nn2)no1 | inactive: 4.16%
CN(Cc1ccccc1)Cc1cc(CC2(NC3CCCCC3)COC2)no1 | inactive: 7.49% [at 57.5 µM]
O=C1NC(=NC2CCCC2)C2(CCN([S+](=O)([O-])c3cccc(C(F)(F)F)c3)C2)N1c1cccnc1 (stereo unspecified) | inactive: -0.274%
CN1CCCC2(CCN(c3nc4c(cc3C(N)=O)CCC4)C2)C1=O (stereo unspecified) | inactive: -0.0357%
Cc1cc(C)n(CCC(=O)N2CCC(Cc3nncn3-c3ccccc3)CC2)n1 | inactive: -5.45%
O=C(NCc1cccc(F)c1)N1CCC(n2cnnc2C2CC2)C1 (stereo unspecified) | inactive: -0.49%
O=[S+]([O-])(c1cccnc1)c1nnn2c1nc(NCc1ccncc1)c1ccccc12 | inactive: 0.326%
Cc1ccc(OCc2nc(C3CCCCN3C(=O)c3ccncc3)no2)cc1 (stereo unspecified) | inactive: 0.791%
CC(=O)NCc1nnc2n1C(C(=O)Nc1cccc(Cl)c1)CC2 (stereo unspecified) | inactive: -5.04%
C(=C\c1ccccc1)/CN1CCN(c2nccc(-c3cccnc3)n2)CC1 | inactive: -4.13%
CC(C)[S+](=O)([O-])N1CCC2(CC1)CC(c1cccc(C(F)(F)F)c1)=NO2 | inactive: -2.29%
Cn1cc(CN(Cc2c(C(=O)N3CCCC3)nc3sccn23)C2CC2)cn1 | inactive: -9.07%
OC[C@@H]1O[C@H](CNC2CCOCC2)[C@H](N2CCCCC2)[C@@H]1O | inactive: 1.3% [at 57.5 µM]
O=C(c1cccc2c1NCCC2)N1CCn2nc(C(O)C3CC3)cc2C1 (stereo unspecified) | inactive: 2.7%

Reprinted at random: three compounds from above.
Compound | activity % (negative = inhibition)
O=C1NC(=NC2CCCC2)C2(CCN([S+](=O)([O-])c3cccc(C(F)(F)F)c3)C2)N1c1cccnc1 (stereo unspecified) | inactive: -0.274%
O=C([C@@H]1C[C@H](Oc2ccccc2)CN1C(=O)C1CC1)N1CCCC1 | inactive: 1.16%
Cc1ccc(OCc2nc(C3CCCCN3C(=O)c3ccncc3)no2)cc1 (stereo unspecified) | inactive: 0.791%
